PMC10978938
Substitutions are numbered along the chain they refer to. No constants are given. Whether binding was seen depends on the method and setting. For some of these results: Binding seen in cells or lysates may run through a third protein. Some binding calls cover weakened binding; strength is not graded here. For some of these results: Where a sequence is shown, tags or fusion partners need not be part of it.

Amino acid sequences for entries named in this document (tags omitted).
UniProt P47811: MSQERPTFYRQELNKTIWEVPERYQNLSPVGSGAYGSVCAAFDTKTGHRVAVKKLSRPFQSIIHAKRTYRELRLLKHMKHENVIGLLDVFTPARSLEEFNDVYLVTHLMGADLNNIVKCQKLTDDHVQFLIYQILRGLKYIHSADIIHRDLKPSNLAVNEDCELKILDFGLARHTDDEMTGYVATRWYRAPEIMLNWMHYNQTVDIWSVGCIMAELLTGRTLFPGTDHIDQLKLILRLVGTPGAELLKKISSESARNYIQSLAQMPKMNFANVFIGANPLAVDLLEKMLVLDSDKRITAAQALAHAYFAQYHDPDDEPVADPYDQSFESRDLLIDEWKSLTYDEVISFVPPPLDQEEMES
UniProt Q16539: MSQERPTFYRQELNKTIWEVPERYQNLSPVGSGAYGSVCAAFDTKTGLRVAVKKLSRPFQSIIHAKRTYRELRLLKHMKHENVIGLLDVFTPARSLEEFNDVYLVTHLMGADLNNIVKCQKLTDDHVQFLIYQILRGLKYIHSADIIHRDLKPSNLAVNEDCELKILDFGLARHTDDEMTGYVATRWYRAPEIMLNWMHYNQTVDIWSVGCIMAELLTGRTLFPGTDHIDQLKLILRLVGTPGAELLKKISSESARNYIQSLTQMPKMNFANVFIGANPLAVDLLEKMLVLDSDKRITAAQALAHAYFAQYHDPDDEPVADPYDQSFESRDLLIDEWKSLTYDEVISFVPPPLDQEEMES
UniProt Q8C3P7: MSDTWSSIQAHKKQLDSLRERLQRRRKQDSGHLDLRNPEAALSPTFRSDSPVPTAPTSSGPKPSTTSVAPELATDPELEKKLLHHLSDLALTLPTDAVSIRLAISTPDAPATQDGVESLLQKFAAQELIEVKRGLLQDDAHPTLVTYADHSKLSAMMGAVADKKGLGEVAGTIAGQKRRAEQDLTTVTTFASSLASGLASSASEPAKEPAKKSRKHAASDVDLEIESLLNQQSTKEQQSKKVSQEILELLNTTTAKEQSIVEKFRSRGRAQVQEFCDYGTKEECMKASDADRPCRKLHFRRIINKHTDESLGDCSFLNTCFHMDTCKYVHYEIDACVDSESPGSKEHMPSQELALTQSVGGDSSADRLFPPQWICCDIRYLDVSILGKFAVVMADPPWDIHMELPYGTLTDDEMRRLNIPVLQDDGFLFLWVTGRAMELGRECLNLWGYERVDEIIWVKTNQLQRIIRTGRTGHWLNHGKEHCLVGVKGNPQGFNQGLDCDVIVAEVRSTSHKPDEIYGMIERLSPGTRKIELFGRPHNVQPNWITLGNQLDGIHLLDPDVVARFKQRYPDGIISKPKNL

Tests used:
[1] = target: T1, methyltransferase-like 14 (METTL14), endogenous in mouse peritoneal macrophages (mouse (endogenous in peritoneal macrophages)) (UniProt Q3UIK4); assay: co-IP
T1 sequence: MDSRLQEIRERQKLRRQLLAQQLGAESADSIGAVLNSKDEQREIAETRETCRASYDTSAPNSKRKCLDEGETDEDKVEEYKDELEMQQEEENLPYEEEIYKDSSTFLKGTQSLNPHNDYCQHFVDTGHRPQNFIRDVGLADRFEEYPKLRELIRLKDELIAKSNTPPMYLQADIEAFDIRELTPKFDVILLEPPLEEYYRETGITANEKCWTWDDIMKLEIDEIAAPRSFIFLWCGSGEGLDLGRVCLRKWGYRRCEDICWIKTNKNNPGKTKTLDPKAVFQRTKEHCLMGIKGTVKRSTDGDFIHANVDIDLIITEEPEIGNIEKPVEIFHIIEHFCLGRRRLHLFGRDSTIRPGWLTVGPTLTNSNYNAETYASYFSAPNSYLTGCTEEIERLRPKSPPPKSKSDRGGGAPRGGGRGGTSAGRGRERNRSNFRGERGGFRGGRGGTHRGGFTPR

[2] = target: T2, HA-tagged Mettl14, wild type (UniProt Q3UIK4); assay: co-IP
T2 sequence: T1 sequence

[3] = target: T3, METTL14 in HEK293T cells (human (endogenous in HEK293T)) (UniProt Q9HCE5); assay: co-IP; HEK293T cells transfected with plasmids encoding FLAG-EsxB for 24 h and stimulated with TNF-α for indicated times
T3 sequence: T1 sequence with S62A, C66Y, V77M, E89D, T448A, T454P

[4] = target: p38 MAP kinase (p38α), endogenous in mouse peritoneal macrophages (mouse (endogenous in peritoneal macrophages)) (UniProt P47811); assay: co-IP
[5] = target: GST-p38, purified recombinant (human) (UniProt Q16539); assay: pull-down; in vitro GST precipitation assay, purified recombinant GST-p38 with GFP-METTL14; both purified

With “p38 MAP kinase (p38α), endogenous in mouse peritoneal macrophages (from UniProt P47811 1-360) (enzyme)” the binding [1] was “binds”.

For “methyltransferase-like 3 (METTL3), endogenous in mouse macrophages (from UniProt Q8C3P7 1-580) (enzyme)”, the binding [2] was “binds”.

“p38 MAP kinase in HEK293T cells (from UniProt Q16539 1-360) (enzyme)” was tested, and the binding [3] was “binds”.

B1: TCF (ELK4), endogenous in mouse peritoneal macrophages (protein, UniProt P41158 1-430)
chain: MDSAITLWQFLLQLLQEPQNEHMICWTSNNGEFKLLQAEEVARLWGIRKNKPNMNYDKLSRALRYYYVKNIIKKVNGQKFVYKFVSYPEILKMDPLTVGRIEGDCEALNSIETSSSKDVEYGGKERPPQPGAKTSSRNDYIHSGLYSSFTLNSLNTSNKKLFKSIKIENPAEKLAEKKAQEPTPSVIKFVTTPAKKPPIEPVAAAFATSPSLSPSSEETIQALETLVSPTLPSLETPASISILATTFNPTPPVPSTPLPLKEPPRTPSPPLSSNPDIDTDIESVASQPMELPENLSLEPKNEDSALPEKDKTNNSSRSKKPKGLELTPALVVTGSDPSPLGILSPSLPTASLTPALFSQTPILLTPSPLLSSIHFWSTLSPFAPLSPARLQGANTLFQFPSVLNSHGPFTLSGLDGPSTPGPFSPDLQKT
With B1 the binding [4] was “binds”.

B2: TAB1, endogenous in mouse peritoneal macrophages (protein, UniProt Q8CF89 1-502)
chain: MAAQRRSLLQSEQQPSWTDDLPLCHLSGVGSASNRSYSADGKGTESHPPEDNWLKFRSENNCFLYGVFNGYDGNRVTNFVAQRLSAELLLGQLNTEHTEADVRRVLLQAFDVVERSFLESIDDALAEKASLQSQLPEGVPQHQLPPQYQKILERLKALEREISGGAMAVVAVLLNSKLYVANVGTNRALLCKSTVDGLQVTQLNMDHTTENEDELFRLSQLGLDAGKIKQMGVICGQESTRRIGDYKVKYGYTDIDLLSAAKSKPIIAEPEIHGAQPLDGVTGFLVLMSEGLYKALEAAHGPGQANQEIAAMIDTEFAKQTSLDAVAQAVVDRVKRIHSDTFASGGERAKFCPRHEDMTLLVRNFGYPLGEMSQPTPTPAPGGRVYPVSVPYSSAQSTSKTSVTLSLVMPSQGQMVNGSHSASTLDEATPTLTNQSPTLTLQSTNTHTQSSSSSSDGGLFRSRPAHSLPPGEDGRVEPYVDFAEFYRLWSVDHGEQSVMTAP
With B2 the binding [4] was “binds”.

B3: GFP-METTL14, recombinant (protein, UniProt Q3UIK4 1-456)
chain: T1 sequence
B3 was tested, and the binding [5] was “binds”.

B4: ATF-2, endogenous in mouse peritoneal macrophages (protein, UniProt P16951 1-487)
chain: MSDDKPFLCTAPGCGQRFTNEDHLAVHKHKHEMTLKFGPARNDSVIVADQTPTPTRFLKNCEEVGLFNELASPFENEFKKASEDDIKKMPLDLSPLATPIIRSKIEEPSVVETTHQDSPLPHPESTTSDEKEVPLAQTAQPTSAIVRPASLQVPNVLLTSSDSSVIIQQAVPSPTSSTVITQAPSSNRPIVPVPGPFPLLLHLPNGQTMPVAIPASITSSNVHVPAAVPLVRPVTMVPSVPGIPGPSSPQPVQSEAKMRLKAALTQQHPPVTNGDTVKGHGSGLVRTQSEESRPQSLQQPATSTTETPASPAHTTPQTQNTSGRRRRAANEDPDEKRRKFLERNRAAASRCRQKRKVWVQSLEKKAEDLSSLNGQLQSEVTLLRNEVAQLKQLLLAHKDCPVTAMQKKSGYHTADKDDSSEDLSVPSSPHTEAIQHSSVSTSNGVSSTSKAEAVATSVLTQMADQSTEPALSQIVMAPPSQAQPSGS
B4 was tested, and the binding [4] was “binds”.
